Results as given in paper PMC7819943, “Rice protein-binding microarrays: a tool to detect cis-acting elements near promoter regions in rice”.
The list shows a part of the results.

By UniProt entry, the sequences of proteins in these tests, tags left out.
UniProt Q0JBA9, entry or part of it: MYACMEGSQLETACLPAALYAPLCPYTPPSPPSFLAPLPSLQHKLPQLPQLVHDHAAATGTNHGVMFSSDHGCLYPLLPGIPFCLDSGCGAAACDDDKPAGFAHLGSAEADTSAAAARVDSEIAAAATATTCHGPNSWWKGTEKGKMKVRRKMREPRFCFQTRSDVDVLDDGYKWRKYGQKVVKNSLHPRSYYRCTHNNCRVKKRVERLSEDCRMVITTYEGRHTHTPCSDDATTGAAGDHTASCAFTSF

Each sequence was assayed against OsWRKY34 (Oryza sativa, UniProt Q0JBA9 1-250) (assay: protein-binding microarray (RPBM); PBS, 2% BSA, 51.3 ng/ul salmon testes DNA, 50 uM zinc acetate, 200 nM TF, 25 C, 1 h; high values mean tight binding). Conditions: protein: recombinant; tags: N-terminal polyhistidine and DsRed monomer fusion (pET32a); label: CyDye5-dUTP incorporated in the synthesized complementary strand; 3' TTTTT single-stranded linker to array surface; dsDNA, one strand shown.
Outline: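 A custom Agilent array was converted to double-stranded form by primer extension with Cy5-dUTP and blocked with 2% BSA. Protein at 200 nM in PBS with 2% BSA, salmon testes DNA and 50 µM zinc acetate was applied for 1 h at 25 °C, followed by washing. The proteins were polyhistidine–DsRed N-terminal fusions of transcription factors, expressed in E. coli BL21-CodonPlus and Ni–NTA-purified. The binding signal is per-feature fluorescence intensity (arbitrary units) from an Axon 4000B scanner.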
For “CTACCCTCGTTGCTCTTATCCACTCGCGCCTCGTACCACCCGGAGTCACCTAGTGCAG”, the binding signal was 11400 fluorescence intensity (a.u.). “ACACACTCTCTCTCTCTCTCTCTCTCTCTCTCTCTCTCTCCGGAGTCACCTAGTGCAG” was tested, and the binding signal was 10800 fluorescence intensity (a.u.). With “AGCTAACATTAATACAGGTCTTCGTTTGACCAATGCTGTTCGGAGTCACCTAGTGCAG” the binding signal was 9850 fluorescence intensity (a.u.). For “TTTTTCGTTTTGTTTTTTTTTTCGTTAATTTGGCTTAACTCGGAGTCACCTAGTGCAG”, the binding signal was 8640 fluorescence intensity (a.u.). In the case of “TTAGAATGTGGACCCTTTTTATATCACGTGTCGTTTGTCACGGAGTCACCTAGTGCAG”, the binding signal is reported as 11500 fluorescence intensity (a.u.). For “TTGTGTTGTTCTGTAAAGATTTCTATAGATGCTTTATATTCGGAGTCACCTAGTGCAG”, the binding signal was 8120 fluorescence intensity (a.u.). With “CATTCGTCGCCGCCCTCGCATTTTAGCATCGTCGTCTGGCCGGAGTCACCTAGTGCAG” the binding signal was 8040 fluorescence intensity (a.u.). With “TTTTTTTTCTGCAACCCTCTGTTGCAATCCTGTTCCCCATCGGAGTCACCTAGTGCAG” the binding signal was 8420 fluorescence intensity (a.u.). For “GCTCTGACACCTCGATTCACCCCGCCTCGCCGCCGGCCACCGGAGTCACCTAGTGCAG”, the binding signal was 8980 fluorescence intensity (a.u.). In the case of “GGCTCATCGTCATTCAGGTCTAGCTTGCTCCCGACCTCCTCGGAGTCACCTAGTGCAG”, the binding signal is reported as 9000 fluorescence intensity (a.u.). “ATTTTGCTATATCTCACTCGAAAGATTTTTTCTTATCTCTCGGAGTCACCTAGTGCAG” was tested, and the binding signal was 8210 fluorescence intensity (a.u.). With “AAACAGATTTGGTATATGTCCGTCTCTTTTATCCTTCTTTCGGAGTCACCTAGTGCAG” the binding signal was 8970 fluorescence intensity (a.u.). For “TTTTTTTCTCAATTCATACCTATTCTTGACTGTCTTTTTTCGGAGTCACCTAGTGCAG”, the binding signal was 11400 fluorescence intensity (a.u.). In the case of “ACCTCCACAAACTGGACCAATCTGGACGCTGTCCAATTCGCGGAGTCACCTAGTGCAG”, the binding signal is reported as 8730 fluorescence intensity (a.u.). For “ATCATTTGTGTTGTTTAATTAGGGTCCTATCCGTCAAATACGGAGTCACCTAGTGCAG”, the binding signal was 9080 fluorescence intensity (a.u.). With “TGTGTTGGTGATGTCGATGTGTGGGTGGTGGTTTTTTTTTCGGAGTCACCTAGTGCAG” the binding signal was 13800 fluorescence intensity (a.u.). In the case of “CTTCTGCGCCATTTTCCAGTGAACCAACTTTGCGAGCGACCGGAGTCACCTAGTGCAG”, the binding signal is reported as 11700 fluorescence intensity (a.u.). For “ATCAACGCTACGTATATGCGCGCCGTGTTACGTATCTCTTCGGAGTCACCTAGTGCAG”, the binding signal was 9040 fluorescence intensity (a.u.). With “ATACCCTTTGACTAAAACCACCAGTACCCACCAGCTTCAACGGAGTCACCTAGTGCAG” the binding signal was 9730 fluorescence intensity (a.u.). In the case of “GGTTAGGATAGCTCAAGACGGCATAGCTCATGAGTTGACCCGGAGTCACCTAGTGCAG”, the binding signal is reported as 8280 fluorescence intensity (a.u.). “CCATCCGATCGCCATCATCTCATCATCAGTTCATCACCAACGGAGTCACCTAGTGCAG” was tested, and the binding signal was 10400 fluorescence intensity (a.u.). With “AAGAGTTAGATTTGACTTTTTGAATTATTTGCTACTAACTCGGAGTCACCTAGTGCAG” the binding signal was 9060 fluorescence intensity (a.u.). In the case of “CACGTTGTCCTCGCGTGCCTGGCTCGGCGGGCCCACCCGCCGGAGTCACCTAGTGCAG”, the binding signal is reported as 10400 fluorescence intensity (a.u.).
